{"source": "PubChem BioAssay AID1224826 | NIAID – 2016", "assay": "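Regulators of Tlr4 signalling leading to Tnf-alpha expression in macrophages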 (primary screen)", "cells": "RAW264.7 G9 macrophages from mouse bearing reporters for p65 (GFP) and the Tnf promoter (mCherry)", "reagents": "siRNA pool against mouse genes, 100 nM", "timing": "16 h of LPS stimulation, after 2 days of siRNA transfection", "challenge": "bacterial lipopolysaccharide (Salmonella minnesota R595), 10 ng/ml", "read-out": "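Nuclear mCherry signal of the Tnf promoter reporter measured by imaging after background removal, scaled to each plate median and turned into robust z-scores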", "reading the numbers": "Tnf reporter robust z-score: higher = stronger Tnf promoter reporter signal after LPS", "hit rule": "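a well counts as active at a score of -1.3 or below (Tlr4 knock-down control median) or above 3 (raised signal); controls and wells holding fewer than 50 cells are excluded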", "calls": "active = Tnf reporter clearly lowered or raised; inactive = no clear change in Tnf reporter", "note": "Here is a random part of about 17,000 reagents tested. About 1,110 of all reagents (6.6%) were called active. 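Active means lowered or raised reporter signal; replicate intensities are raw and not normalised per plate.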 Further read-outs or replicates are left out here."}
{"gene": "Txndc9 (thioredoxin domain containing 9)", "fewer than 50 cells in well": "fewer than 50 cells per well; well left out of calls", "Outcome": "inactive"}
{"gene": "Fbxo7 (F-box protein 7)", "Tnf reporter robust z-score": -0.51, "fewer than 50 cells in well": "enough cells in well", "Outcome": "inactive"}
{"gene": "Hexim1 (hexamethylene bis-acetamide inducible 1)", "Tnf reporter robust z-score": 0.27, "fewer than 50 cells in well": "enough cells in well", "Outcome": "inactive"}
{"gene": "Or5ac21 (olfactory receptor family 5 subfamily AC member 21)", "Tnf reporter robust z-score": 1.43, "fewer than 50 cells in well": "enough cells in well", "Outcome": "inactive"}
{"gene": "Col13a1 (collagen, type XIII, alpha 1)", "Tnf reporter robust z-score": -0.05, "fewer than 50 cells in well": "enough cells in well", "Outcome": "inactive"}
{"gene": "Pla2g4a (phospholipase A2, group IVA (cytosolic, calcium-dependent))", "Tnf reporter robust z-score": -0.15, "fewer than 50 cells in well": "enough cells in well", "Outcome": "inactive"}
{"gene": "Sgpp1 (sphingosine-1-phosphate phosphatase 1)", "Tnf reporter robust z-score": 0.46, "fewer than 50 cells in well": "enough cells in well", "Outcome": "inactive"}
{"gene": "Arhgef3 (Rho guanine nucleotide exchange factor 3)", "Tnf reporter robust z-score": 0, "fewer than 50 cells in well": "enough cells in well", "Outcome": "inactive"}
{"gene": "Pcdhb7 (protocadherin beta 7)", "Tnf reporter robust z-score": -0.43, "fewer than 50 cells in well": "enough cells in well", "Outcome": "inactive"}
{"gene": "Rtn4r (reticulon 4 receptor)", "Tnf reporter robust z-score": -0.15, "fewer than 50 cells in well": "enough cells in well", "Outcome": "inactive"}
{"gene": "Ms4a3 (membrane-spanning 4-domains, subfamily A, member 3)", "Tnf reporter robust z-score": 1.39, "fewer than 50 cells in well": "enough cells in well", "Outcome": "inactive"}
{"gene": "Nudt7 (nudix hydrolase 7)", "Tnf reporter robust z-score": -0.35, "fewer than 50 cells in well": "enough cells in well", "Outcome": "inactive"}

Taken from above:
For “Tnf reporter robust z-score”, Sgpp1 (sphingosine-1-phosphate phosphatase 1) is entered as 0.46
Hexim1 (hexamethylene bis-acetamide inducible 1), Tnf reporter robust z-score = 0.27
